{"source": "patent US20250073239A1", "about": "“COMBINATION OF AN IMMUNOCYTOKINE COMPRISING IL-12 AND A KINASE INHIBITOR” (PHILOGEN S.P.A., priority 2022, published 2025)", "test_system": "Human NK-92 cells", "test": "In vitro IFN-γ release assay (ELISA) in the presence of L19-hIL12", "format": "cell-based", "conditions": "increasing concentrations of inhibitor with 10 ng/mL L19-hIL12, 24 hours, benchmarked against Dexamethasone", "note": "At least one compound was matched to its structure with a doubt left."}
{"compound": "N#CC[C@H](C1CCCC1)n1cc(-c2ncnc3[nH]ccc23)cn1", "note": "[Ruxolitinib]", "values": [{"measurement": "reduction of the production and release of IFN-γ", "value": "performed better than Dexamethasone"}]}
